Data: PubChem BioAssay AID2284379 (EPA ToxCast)
This list was built around the results that the source calls inconclusive (neither active nor inactive); the mix of calls is not that of the screen. How the source made its calls: active means hit-call score of the fitted dose curve at least 0.9, where 1 is the maximum; inconclusive means response in the unintended direction; inactive means score below 0.9. Potencies beside an inconclusive call are fits to weak or partial responses and may not hold up.

Assay: ATG_M_32_EcoTox2: Attagene TRANS-FACTORIAL EcoTox-2 HepG2 Assay for M32 Transcription Factor (Internal Marker)
Protocol: ATG_EcoTox2 is a cell-based, multiplexed assay created by modifying the existing Attagene TRANS-FACTORIAL system to include a panel of nuclear receptors from some or all the following species: human (Homo sapiens), african clawed frog (Xenopus laevis), rainbow trout (Oncorhynchus mykiss), japanese medaka (Oryzias latipes), and zebrafish (Danio rerio). The ECOTOX2-FACTORIAL format uses HepG2, a human liver cell line, with measurements taken at 24 hours after chemical dosing in a 24-well plate. ATG_M_32_EcoTox2 is one of 29 assay components calculated in the ATG_EcoTox2 assay. It is designed to make measurements of mRNA induction, a form of inducible reporter, as detected with fluorescence intensity signals by Reverse transcription polymerase chain reaction (RT-PCR) and Capillary electrophoresis technology.The assay endpoint ATG_M_32_EcoTox2 was analyzed in the positive analysis fitting direction relative to DMSO as the negative control and baseline of activity. Using a type of inducible reporter, measures of mRNA for gain-of-signal activity can be used to understand the background control at the transcription factor-level as they relate to the gene. Furthermore, this assay endpoint can be referred to as a secondary readout, because this assay has produced multiple assay endpoints where this one serves a background control function. To generalize the intended target to other relatable targets, this assay endpoint is annotated to the background measurement intended target family, where the subfamily is internal marker.
Human liver HepG2 cells are transiently transfected with multiple reporter transcription units (MRTUs) in 6-well plates using FuGene 6 reagent (Roche; 3 ml FuGene/1 mg DNA). The MRTU constructs are regulated by a cis-regulating element (promoter). Each RTU expresses a GAL4-UAS that regulates the transcription of a nearby target reporter gene sequence. A major difference between the CIS and TRANS system is that in CIS activities of endogenous TFs are measured, whereas the TRANS assay evaluates changes in activities of exogenous, chimeric NR-Gal4 proteins. […] At the end of 24 hour incubation, total RNA was isolated using TriZol reagent (Invitrogen). The isolated RNA is then reverse-transcribed using oligo(dT) primer and Mo-MLV reverse transcriptase (Invitrogen) with DNAse I (Ambion) treatment for 30 min. The one-tenth of the produced cDNA was amplified by PCR using Taq DNA polymerase (Invitrogen) and two reporter sequence-specific primers. The PCR products were fluorescently labeled by primer extension with 6-arboxyfluorescein (6-FAM) 5'-labeled reporter sequence-specific primer (2 min at 95 C, 20 s at 68 C and 10 min at 72 C) and these products were digested with 5U of HpaI (New England Biolabs) for 2h at 37 C. The fragments were purified using Qiaquick PCR columns (Qiagen), analyzed on an ABI 3130xL genetic analyzer (Applied Biosystems) with peak positions identified by using a set of X-rhodamine (ROX)-labeled MapMarker1000 molecular weight standards (BioVentures). The raw capillary electrophoresis data was processed using Attagraph software (Attagene).

| SMILES | AC50 |
| --- | --- |
| C=C(c1ccc(C(=O)O)cc1)c1cc2c(cc1C)C(C)(C)CCC2(C)C | inconclusive: 5.55 µM |
| Cc1cccc(Nc2cc(Cl)nc(SCC(=O)O)n2)c1C | inconclusive: 33.5 µM |
| Cc1ccc(C)c(OCCCC(C)(C)C(=O)O)c1 | inconclusive: 50 µM |
| CC(C)(Oc1ccc(C2CC2(Cl)Cl)cc1)C(=O)O (stereo unspecified) | inconclusive: 100 µM |
| CC(C)(Oc1ccc(CCNC(=O)c2ccc(Cl)cc2)cc1)C(=O)O | inconclusive: 184 µM |
| CC(C)(Oc1ccc(Cl)cc1)C(=O)O | inconclusive: 26.4 µM |
